Assay results published in the supplement of paper PMC10849652.
The other results are listed elsewhere or left out.

Sequences of proteins named here, by UniProt entry; tags and fusion partners are left off. A change or cut given only in a name is not applied to a line headed by its entry.
UniProt Q9H8M5: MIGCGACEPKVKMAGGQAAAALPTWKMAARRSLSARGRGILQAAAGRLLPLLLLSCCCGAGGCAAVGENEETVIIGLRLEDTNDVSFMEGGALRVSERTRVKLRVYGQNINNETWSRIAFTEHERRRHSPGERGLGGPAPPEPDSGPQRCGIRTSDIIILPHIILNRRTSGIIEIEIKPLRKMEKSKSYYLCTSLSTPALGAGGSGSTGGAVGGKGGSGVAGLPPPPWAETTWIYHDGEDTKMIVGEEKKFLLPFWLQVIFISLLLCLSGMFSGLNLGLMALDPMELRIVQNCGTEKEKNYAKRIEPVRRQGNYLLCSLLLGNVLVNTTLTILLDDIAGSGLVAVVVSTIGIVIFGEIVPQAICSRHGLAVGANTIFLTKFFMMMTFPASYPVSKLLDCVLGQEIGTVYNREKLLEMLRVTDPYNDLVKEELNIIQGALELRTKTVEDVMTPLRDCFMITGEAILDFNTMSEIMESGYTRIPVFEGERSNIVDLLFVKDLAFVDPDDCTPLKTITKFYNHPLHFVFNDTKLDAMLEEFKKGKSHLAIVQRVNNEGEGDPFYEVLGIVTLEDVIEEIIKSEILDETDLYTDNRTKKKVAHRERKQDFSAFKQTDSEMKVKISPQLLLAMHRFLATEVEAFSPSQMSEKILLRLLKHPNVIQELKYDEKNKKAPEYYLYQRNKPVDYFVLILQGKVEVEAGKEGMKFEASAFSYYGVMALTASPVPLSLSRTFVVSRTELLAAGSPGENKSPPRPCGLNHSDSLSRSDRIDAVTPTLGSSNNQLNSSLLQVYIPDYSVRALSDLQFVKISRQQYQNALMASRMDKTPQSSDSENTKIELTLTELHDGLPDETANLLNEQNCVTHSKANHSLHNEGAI
UniProt Q9ULV3: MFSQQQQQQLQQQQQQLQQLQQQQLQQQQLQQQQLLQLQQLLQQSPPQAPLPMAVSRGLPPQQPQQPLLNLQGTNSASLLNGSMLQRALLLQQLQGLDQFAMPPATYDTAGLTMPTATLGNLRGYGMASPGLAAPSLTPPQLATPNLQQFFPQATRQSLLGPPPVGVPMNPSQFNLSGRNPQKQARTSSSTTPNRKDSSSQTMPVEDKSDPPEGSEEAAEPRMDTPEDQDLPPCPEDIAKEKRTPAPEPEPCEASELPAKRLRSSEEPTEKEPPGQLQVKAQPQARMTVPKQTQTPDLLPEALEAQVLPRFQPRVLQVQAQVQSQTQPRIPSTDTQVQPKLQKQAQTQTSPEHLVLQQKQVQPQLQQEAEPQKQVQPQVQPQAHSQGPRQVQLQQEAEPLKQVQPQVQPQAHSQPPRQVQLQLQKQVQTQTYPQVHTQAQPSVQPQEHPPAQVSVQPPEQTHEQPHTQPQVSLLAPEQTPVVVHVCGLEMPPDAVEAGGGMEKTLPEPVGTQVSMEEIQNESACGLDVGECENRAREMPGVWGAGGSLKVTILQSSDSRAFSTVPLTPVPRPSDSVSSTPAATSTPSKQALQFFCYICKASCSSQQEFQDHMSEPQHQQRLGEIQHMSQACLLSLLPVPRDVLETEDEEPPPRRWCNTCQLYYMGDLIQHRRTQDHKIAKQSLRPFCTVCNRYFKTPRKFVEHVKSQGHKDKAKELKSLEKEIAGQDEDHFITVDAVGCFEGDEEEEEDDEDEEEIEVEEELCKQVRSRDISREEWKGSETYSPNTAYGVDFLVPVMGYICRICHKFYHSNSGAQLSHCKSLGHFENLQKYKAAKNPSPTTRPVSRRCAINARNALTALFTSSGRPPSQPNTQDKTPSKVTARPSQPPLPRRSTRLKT
UniProt Q8N1G2: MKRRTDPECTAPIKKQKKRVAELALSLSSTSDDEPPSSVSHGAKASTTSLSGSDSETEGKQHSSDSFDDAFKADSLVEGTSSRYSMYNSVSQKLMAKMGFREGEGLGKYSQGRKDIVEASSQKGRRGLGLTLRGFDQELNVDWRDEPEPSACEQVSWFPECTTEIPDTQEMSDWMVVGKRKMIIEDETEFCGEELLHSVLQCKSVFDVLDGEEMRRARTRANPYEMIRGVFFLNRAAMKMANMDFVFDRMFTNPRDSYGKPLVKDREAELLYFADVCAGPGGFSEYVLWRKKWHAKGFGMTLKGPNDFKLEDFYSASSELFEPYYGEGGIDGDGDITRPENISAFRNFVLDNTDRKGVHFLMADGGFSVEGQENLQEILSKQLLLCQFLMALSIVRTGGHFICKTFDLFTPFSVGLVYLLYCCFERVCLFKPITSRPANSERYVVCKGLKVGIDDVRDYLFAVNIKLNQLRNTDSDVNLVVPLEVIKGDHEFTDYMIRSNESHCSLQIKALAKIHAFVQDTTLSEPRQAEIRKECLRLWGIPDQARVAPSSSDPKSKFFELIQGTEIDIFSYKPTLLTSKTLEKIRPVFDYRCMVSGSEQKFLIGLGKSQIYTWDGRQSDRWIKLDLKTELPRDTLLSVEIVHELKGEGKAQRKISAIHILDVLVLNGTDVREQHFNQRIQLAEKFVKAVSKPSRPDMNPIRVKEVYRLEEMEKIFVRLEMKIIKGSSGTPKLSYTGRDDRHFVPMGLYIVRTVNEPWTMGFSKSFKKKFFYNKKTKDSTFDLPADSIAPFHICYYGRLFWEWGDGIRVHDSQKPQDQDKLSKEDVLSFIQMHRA
UniProt Q9Y2R0: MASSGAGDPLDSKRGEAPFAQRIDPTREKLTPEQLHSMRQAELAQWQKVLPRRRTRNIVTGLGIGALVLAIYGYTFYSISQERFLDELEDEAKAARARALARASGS
UniProt P62633: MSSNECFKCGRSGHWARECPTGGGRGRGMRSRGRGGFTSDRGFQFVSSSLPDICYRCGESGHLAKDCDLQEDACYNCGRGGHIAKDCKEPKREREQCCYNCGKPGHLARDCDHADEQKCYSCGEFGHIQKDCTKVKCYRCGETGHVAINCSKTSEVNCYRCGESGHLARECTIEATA
UniProt P0C7P0: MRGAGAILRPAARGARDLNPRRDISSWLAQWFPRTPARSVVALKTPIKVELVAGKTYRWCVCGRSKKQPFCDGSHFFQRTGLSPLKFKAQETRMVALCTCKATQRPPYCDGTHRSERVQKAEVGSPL
UniProt P51788: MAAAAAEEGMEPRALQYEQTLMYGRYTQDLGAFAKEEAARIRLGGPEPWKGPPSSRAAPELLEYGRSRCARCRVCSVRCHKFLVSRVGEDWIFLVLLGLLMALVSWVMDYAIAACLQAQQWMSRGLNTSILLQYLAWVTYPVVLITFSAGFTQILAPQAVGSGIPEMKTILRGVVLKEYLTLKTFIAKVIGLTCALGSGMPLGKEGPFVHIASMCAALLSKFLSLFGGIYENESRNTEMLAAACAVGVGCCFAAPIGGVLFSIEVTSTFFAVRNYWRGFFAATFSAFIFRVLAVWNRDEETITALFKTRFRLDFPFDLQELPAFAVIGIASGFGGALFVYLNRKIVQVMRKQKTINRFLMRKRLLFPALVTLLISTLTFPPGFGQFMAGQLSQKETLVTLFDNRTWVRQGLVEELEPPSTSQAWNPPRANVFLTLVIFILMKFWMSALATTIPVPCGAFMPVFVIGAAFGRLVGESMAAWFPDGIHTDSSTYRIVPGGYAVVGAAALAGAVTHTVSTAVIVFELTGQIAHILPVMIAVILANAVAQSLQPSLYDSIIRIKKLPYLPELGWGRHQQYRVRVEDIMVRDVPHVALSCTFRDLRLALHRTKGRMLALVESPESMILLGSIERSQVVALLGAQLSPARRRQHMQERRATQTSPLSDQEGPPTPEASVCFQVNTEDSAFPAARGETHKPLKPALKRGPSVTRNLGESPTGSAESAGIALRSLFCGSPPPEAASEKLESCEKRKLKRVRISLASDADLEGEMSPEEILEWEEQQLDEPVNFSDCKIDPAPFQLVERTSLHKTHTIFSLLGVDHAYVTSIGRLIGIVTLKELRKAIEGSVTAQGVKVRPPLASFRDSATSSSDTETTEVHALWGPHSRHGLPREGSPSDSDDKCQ
UniProt Q96KP4: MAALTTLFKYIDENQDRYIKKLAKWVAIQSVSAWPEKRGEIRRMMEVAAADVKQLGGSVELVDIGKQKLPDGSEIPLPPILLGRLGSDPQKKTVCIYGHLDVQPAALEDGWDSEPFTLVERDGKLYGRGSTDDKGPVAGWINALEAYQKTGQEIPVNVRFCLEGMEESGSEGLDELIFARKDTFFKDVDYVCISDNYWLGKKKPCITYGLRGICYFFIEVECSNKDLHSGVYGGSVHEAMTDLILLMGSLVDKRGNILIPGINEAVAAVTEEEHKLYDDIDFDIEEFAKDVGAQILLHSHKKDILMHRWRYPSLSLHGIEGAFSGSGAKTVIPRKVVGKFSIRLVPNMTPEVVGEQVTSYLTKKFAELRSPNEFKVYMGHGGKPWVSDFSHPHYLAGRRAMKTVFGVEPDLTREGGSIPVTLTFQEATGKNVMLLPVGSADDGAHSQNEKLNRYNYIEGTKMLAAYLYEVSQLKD
UniProt Q9UIV1, whole entry, looked up: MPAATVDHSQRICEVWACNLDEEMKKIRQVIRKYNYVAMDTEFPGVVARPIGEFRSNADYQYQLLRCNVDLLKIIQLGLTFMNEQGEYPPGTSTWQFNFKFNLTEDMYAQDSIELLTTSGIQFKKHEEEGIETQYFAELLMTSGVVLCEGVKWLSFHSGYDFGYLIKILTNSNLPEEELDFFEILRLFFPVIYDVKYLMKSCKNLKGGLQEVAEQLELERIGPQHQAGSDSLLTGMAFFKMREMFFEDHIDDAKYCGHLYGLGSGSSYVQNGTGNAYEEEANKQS
UniProt Q9BT09: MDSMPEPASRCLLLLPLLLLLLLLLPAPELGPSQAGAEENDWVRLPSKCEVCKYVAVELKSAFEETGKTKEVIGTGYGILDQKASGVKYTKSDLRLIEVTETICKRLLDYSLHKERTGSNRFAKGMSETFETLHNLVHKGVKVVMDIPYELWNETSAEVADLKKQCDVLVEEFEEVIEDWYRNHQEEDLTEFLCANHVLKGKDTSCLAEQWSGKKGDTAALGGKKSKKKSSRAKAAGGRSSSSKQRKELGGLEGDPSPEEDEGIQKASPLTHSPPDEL
UniProt Q9UHD1: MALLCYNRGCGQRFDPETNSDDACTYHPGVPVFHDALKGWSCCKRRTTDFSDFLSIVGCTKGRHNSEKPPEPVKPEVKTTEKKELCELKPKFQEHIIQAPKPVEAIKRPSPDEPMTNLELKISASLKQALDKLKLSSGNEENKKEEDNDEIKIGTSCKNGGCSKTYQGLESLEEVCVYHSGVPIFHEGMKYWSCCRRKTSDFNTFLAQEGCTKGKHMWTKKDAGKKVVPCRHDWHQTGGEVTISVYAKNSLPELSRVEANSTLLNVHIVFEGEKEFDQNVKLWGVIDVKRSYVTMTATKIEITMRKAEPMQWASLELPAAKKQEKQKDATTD
UniProt Q8WUH1: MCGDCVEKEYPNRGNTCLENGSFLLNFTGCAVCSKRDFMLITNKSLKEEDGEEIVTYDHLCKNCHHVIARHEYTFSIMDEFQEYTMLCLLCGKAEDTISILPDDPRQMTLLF
UniProt O76071: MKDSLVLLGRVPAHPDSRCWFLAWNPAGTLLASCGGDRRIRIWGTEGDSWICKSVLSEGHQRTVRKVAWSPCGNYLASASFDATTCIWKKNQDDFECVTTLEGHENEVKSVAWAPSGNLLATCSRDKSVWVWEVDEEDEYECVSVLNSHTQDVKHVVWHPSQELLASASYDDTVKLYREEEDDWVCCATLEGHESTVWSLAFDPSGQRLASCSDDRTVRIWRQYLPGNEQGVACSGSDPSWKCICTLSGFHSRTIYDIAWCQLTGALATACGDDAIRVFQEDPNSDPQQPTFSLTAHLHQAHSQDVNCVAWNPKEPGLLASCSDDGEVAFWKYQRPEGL
UniProt Q9H5X1: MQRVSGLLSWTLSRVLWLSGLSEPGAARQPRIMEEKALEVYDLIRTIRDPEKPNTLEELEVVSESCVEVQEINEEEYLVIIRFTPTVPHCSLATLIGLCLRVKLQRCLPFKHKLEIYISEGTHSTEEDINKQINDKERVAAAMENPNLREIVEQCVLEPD
UniProt Q14677: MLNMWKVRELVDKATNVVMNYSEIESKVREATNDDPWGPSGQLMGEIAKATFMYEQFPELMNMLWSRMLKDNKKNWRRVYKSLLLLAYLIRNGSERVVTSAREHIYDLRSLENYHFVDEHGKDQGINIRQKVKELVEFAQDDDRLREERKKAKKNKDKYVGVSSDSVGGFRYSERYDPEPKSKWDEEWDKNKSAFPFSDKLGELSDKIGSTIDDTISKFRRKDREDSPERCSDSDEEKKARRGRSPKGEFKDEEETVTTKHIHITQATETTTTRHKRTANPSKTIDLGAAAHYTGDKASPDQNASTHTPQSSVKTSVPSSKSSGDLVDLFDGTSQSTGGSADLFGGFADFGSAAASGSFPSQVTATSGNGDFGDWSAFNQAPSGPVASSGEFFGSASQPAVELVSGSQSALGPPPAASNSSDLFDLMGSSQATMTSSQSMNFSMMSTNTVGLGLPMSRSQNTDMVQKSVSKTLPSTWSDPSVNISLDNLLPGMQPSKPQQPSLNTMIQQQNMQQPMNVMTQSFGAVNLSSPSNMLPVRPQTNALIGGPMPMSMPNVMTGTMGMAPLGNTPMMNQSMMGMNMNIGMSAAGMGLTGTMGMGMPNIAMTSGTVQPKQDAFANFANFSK

Assays:
Test in all cases: log2 fold change, soluble protein after heating vs DMSO (PISA); higher = thermal stabilisation; K562 cells, 10 uM, 30 min; active = over 0.2 and 3.5 SD of the protein, either way, in both replicates (recomputed)
[1] = compound: CC1=C(C=C(C=C1)NC(=O)C2=CC(=CC=C2)C(C)(C)C#N)NC3=CC4=C(C=C3)N=CN(C4=O)C
Summary of the method: (§1)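 Aliquots of K562 cells (2×10^6 cells/mL) treated with 10 μM compound for 30 min were heated for 3 min over 48°C-58°C. After pooling and extraction in PBS with 0.5% NP-40 at 4°C, soluble protein from a 21,000xg, 90 min spin was quantified by TMTpro 16plex LC-MS/MS with channel sums equalised. Thermal stability is expressed against control samples, from duplicates, as a log2 fold change.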

[2] = compound: CC1=C(C=C(C=C1)NC(=O)C2=CC(=CC=C2)N(C)C)NC(=O)C3=CC=C(C=C3)O
Summary of the method: as §1

[3] = compound: CC1=CC=C(C=C1)SC2=C3C=C(SC3=CN=C2)C(=O)N
Summary of the method: as §1

[4] = compound: CC1=NC(=CC=C1)C2=C(N=C(N2)C(C)(C)C)C3=CC4=NC=CN=C4C=C3
Summary of the method: as §1

Nexturastat A = compound: CCCCN(Cc1ccc(C(=O)NO)cc1)C(=O)Nc1ccccc1 [Nexturastat A]
Summary of the method: as §1

vemurafenib = compound: CCCS(=O)(=O)Nc1ccc(F)c(C(=O)c2c[nH]c3ncc(-c4ccc(Cl)cc4)cc23)c1F [vemurafenib]
Summary of the method: as §1

[5] = compound: CCCS(=O)(=O)Nc1ccc(F)c(C(=O)c2c[nH]c3ncc(Cl)cc23)c1F
Summary of the method: as §1

[6] = compound: CCCc1cc(C)[nH]c(=O)c1CNC(=O)c1cc(-c2ccnc(N3CCN(C)CC3)c2)cc2c1cnn2C(C)C
Summary of the method: as §1

givinostat = compound: CCN(CC)Cc1ccc2cc(COC(=O)Nc3ccc(C(=O)NO)cc3)ccc2c1 [givinostat]
Summary of the method: as §1

barasertib = compound: CCN(CCCOc1ccc2c(Nc3cc(CC(=O)Nc4cccc(F)c4)[nH]n3)ncnc2c1)CCOP(=O)(O)O [barasertib]
Summary of the method: as §1

Measured: log2 fold change

CNNM2 (UniProt Q9H8M5)
inactive: [1] -0.116 | [2] -0.222 | [3] -0.103 | [4] -0.122 | Nexturastat A -0.101 | vemurafenib -0.099 | [5] -0.26 | [6] 0.053 | givinostat -0.048 | barasertib 0.007

CLUH, A0A494C0R8
inactive: [1] 0.008 | [2] -0.077 | [3] -0.02 | [4] 0.124 | Nexturastat A 0.068 | vemurafenib -0.121 | [5] -0.072 | [6] 0.016 | givinostat 0.092 | barasertib -0.043

CMC1 (UniProt Q7Z7K0)
inactive: [1] -0.021 | [2] 0.018 | [3] -0.118 | [4] 0.052 | Nexturastat A -0.041 | vemurafenib -0.018 | [5] -0.174 | [6] 0.051 | givinostat -0.046 | barasertib 0.031

CLUH (UniProt O75153)
inactive: [1] -0.017 | [2] -0.08 | [3] -0.002 | [4] -0.072 | Nexturastat A -0.022 | vemurafenib 0.047 | [5] -0.03 | [6] 0.049 | givinostat 0.016 | barasertib 0.033

CIZ1 (UniProt Q9ULV3)
inactive: [1] -0.02 | [2] -0.027 | [3] -0.022 | [4] 0.059 | Nexturastat A 0.011 | vemurafenib -0.018 | [5] -0.007 | [6] -0.033 | givinostat 0.017 | barasertib 0.001

CIB1 isoform 2 (UniProt Q99828)
inactive: [1] 0.014 | [2] -0.018 | [3] 0.003 | [4] 0.034 | Nexturastat A 0.063 | vemurafenib 0.053 | [5] -0.073 | [6] 0.152 | givinostat -0.067 | barasertib -0.012

CMTR1 (UniProt Q8N1G2)
inactive: [1] -0.012 | [2] -0.003 | [3] -0.021 | [4] 0.083 | Nexturastat A -0.069 | vemurafenib 0.03 | [5] 0.005 | [6] -0.004 | givinostat -0.062 | barasertib 0.054

COA3 (UniProt Q9Y2R0)
inactive: [1] -0.023 | [2] -0.041 | [3] 0.008 | [4] -0.008 | Nexturastat A -0.038 | vemurafenib 0.055 | [5] 0.006 | [6] -0.001 | givinostat -0.03 | barasertib 0.013

CNST (UniProt Q6PJW8)
inactive: [1] -0.004 | [2] -0.048 | [3] 0.011 | [4] -0.009 | Nexturastat A -0.027 | vemurafenib -0.015 | [5] -0.014 | [6] -0.015 | givinostat -0.046 | barasertib 0.012

Taken from the entries so far (8 entries):
CNNM2 (UniProt Q9H8M5)
inactive: [1] -0.116 | [2] -0.222 | [3] -0.103 | [4] -0.122 | Nexturastat A -0.101 | vemurafenib -0.099 | [5] -0.26 | [6] 0.053 | givinostat -0.048 | barasertib 0.007

CLUH, A0A494C0R8
inactive: [1] 0.008 | [2] -0.077 | [3] -0.02 | [4] 0.124 | Nexturastat A 0.068 | vemurafenib -0.121 | [5] -0.072 | [6] 0.016 | givinostat 0.092 | barasertib -0.043

CMC1 (UniProt Q7Z7K0)
inactive: [1] -0.021 | [2] 0.018 | [3] -0.118 | [4] 0.052 | Nexturastat A -0.041 | vemurafenib -0.018 | [5] -0.174 | [6] 0.051 | givinostat -0.046 | barasertib 0.031

CLUH (UniProt O75153)
inactive: [1] -0.017 | [2] -0.08 | [3] -0.002 | [4] -0.072 | Nexturastat A -0.022 | vemurafenib 0.047 | [5] -0.03 | [6] 0.049 | givinostat 0.016 | barasertib 0.033

CIZ1 (UniProt Q9ULV3)
inactive: [1] -0.02 | [2] -0.027 | [3] -0.022 | [4] 0.059 | Nexturastat A 0.011 | vemurafenib -0.018 | [5] -0.007 | [6] -0.033 | givinostat 0.017 | barasertib 0.001

CIB1 isoform 2 (UniProt Q99828)
inactive: [1] 0.014 | [2] -0.018 | [3] 0.003 | [4] 0.034 | Nexturastat A 0.063 | vemurafenib 0.053 | [5] -0.073 | [6] 0.152 | givinostat -0.067 | barasertib -0.012

CMTR1 (UniProt Q8N1G2)
inactive: [1] -0.012 | [2] -0.003 | [3] -0.021 | [4] 0.083 | Nexturastat A -0.069 | vemurafenib 0.03 | [5] 0.005 | [6] -0.004 | givinostat -0.062 | barasertib 0.054

COA3 (UniProt Q9Y2R0)
inactive: [1] -0.023 | [2] -0.041 | [3] 0.008 | [4] -0.008 | Nexturastat A -0.038 | vemurafenib 0.055 | [5] 0.006 | [6] -0.001 | givinostat -0.03 | barasertib 0.013

The listing continues.

CNBP isoform 6 (UniProt P62633)
inactive: [1] -0.022 | [2] -0.004 | [3] -0.075 | [4] -0.035 | Nexturastat A 0.072 | vemurafenib -0.065 | [5] -0.061 | [6] 0.038 | givinostat -0.066 | barasertib -0.024

COL15A1 (UniProt P39059)
inactive: [1] -0.045 | [2] -0.106 | [3] 0.22 | [4] 0.023 | Nexturastat A 0.152 | vemurafenib 0.073 | [5] -0.269 | [6] -0.021 | givinostat 0.087 | barasertib 0.027

CIT isoform 4 (UniProt O14578)
inactive: [1] -0.105 | [2] 0.017 | [3] -0.003 | [4] -0.032 | Nexturastat A -0.02 | vemurafenib -0.012 | [5] 0.01 | [6] 0.002 | givinostat 0.033 | barasertib 0.047

CISD3 (UniProt P0C7P0)
inactive: [1] 0.023 | [2] -0.1 | [3] -0.007 | [4] -0.037 | Nexturastat A -0.003 | vemurafenib -0.039 | [5] 0.057 | [6] 0.016 | givinostat -0.005 | barasertib 0.073

CMBL (UniProt Q96DG6)
inactive: [1] -0.008 | [2] -0.023 | [3] 0.017 | [4] -0.009 | Nexturastat A 0.043 | vemurafenib -0.009 | [5] -0.024 | [6] -0.009 | givinostat 0.105 | barasertib -0.018

CLTA isoform 2 (UniProt P09496)
inactive: [1] 0.001 | [2] 0.005 | [3] -0.02 | [4] -0.047 | Nexturastat A -0.001 | vemurafenib -0.108 | [5] -0.014 | [6] 0.08 | givinostat -0.01 | barasertib -0.079

CNTN4 (UniProt Q8IWV2)
inactive: [1] -0.053 | [2] 0 | [3] 0.035 | [4] -0.244 | Nexturastat A 0.342 | vemurafenib -0.038 | [5] 0.058 | [6] 0.364 | givinostat 0.278 | barasertib 0.055

CLIP4 (UniProt Q8N3C7)
inactive: [1] -0.044 | [2] 0.013 | [3] -0.191 | [4] 0.059 | Nexturastat A -0.013 | vemurafenib -0.059 | [5] -0.148 | [6] -0.04 | givinostat -0.037 | barasertib 0.02

CNOT2 (UniProt Q9NZN8)
inactive: [1] -0.075 | [2] 0.136 | [3] -0.027 | [4] 0.008 | Nexturastat A 0.017 | vemurafenib -0.03 | [5] 0.006 | [6] -0.018 | givinostat 0.059 | barasertib 0.01

CLIC1 (UniProt O00299)
inactive: [1] -0.003 | [2] 0.015 | [3] 0.053 | [4] 0.017 | Nexturastat A -0.039 | vemurafenib 0.021 | [5] -0.01 | [6] -0.04 | givinostat -0.028 | barasertib 0.028

CLCN2 (UniProt P51788)
inactive: [1] -0.064 | [2] -0.018 | [3] 0.005 | [4] 0.071 | Nexturastat A -0.144 | vemurafenib 0.018 | [5] 0.061 | [6] 0.044 | givinostat -0.213 | barasertib 0.007

CNDP2 (UniProt Q96KP4)
inactive: [1] 0.021 | [2] -0.013 | [3] 0.04 | [4] 0.043 | Nexturastat A -0.131 | vemurafenib 0.016 | [5] 0.003 | [6] -0.052 | givinostat -0.087 | barasertib -0.004

CNOT7 (UniProt Q9UIV1)
inactive: [1] 0.046 | [2] -0.043 | [3] 0.075 | [4] 0.014 | Nexturastat A 0.048 | vemurafenib -0.068 | [5] 0.053 | [6] -0.011 | givinostat -0.026 | barasertib 0.004

CNPY3 (UniProt Q9BT09)
inactive: [1] 0.006 | [2] 0.02 | [3] 0 | [4] 0.022 | Nexturastat A -0.012 | vemurafenib -0.052 | [5] -0.004 | [6] -0.028 | givinostat -0.029 | barasertib -0.005

CHORDC1 (UniProt Q9UHD1)
inactive: [1] 0.062 | [2] -0.014 | [3] 0.012 | [4] 0.046 | Nexturastat A -0.022 | vemurafenib 0.029 | [5] 0.022 | [6] -0.025 | givinostat -0.019 | barasertib 0.026

CHURC1 isoform 2 (UniProt Q8WUH1)
inactive: [1] 0.052 | [2] 0.025 | [3] 0.018 | [4] -0.032 | Nexturastat A 0.023 | vemurafenib 0.011 | [5] 0.012 | [6] -0.063 | givinostat 0.027 | barasertib 0.004

CNPY2 (UniProt Q9Y2B0)
inactive: [1] -0.013 | [2] -0.032 | [3] -0.065 | [4] -0.023 | Nexturastat A -0.023 | vemurafenib -0.018 | [5] -0.02 | [6] -0.017 | givinostat -0.019 | barasertib 0

CIAO1 (UniProt O76071)
inactive: [1] 0.016 | [2] 0.007 | [3] -0.067 | [4] 0.065 | Nexturastat A -0.013 | vemurafenib -0.054 | [5] -0.165 | [6] -0.061 | givinostat -0.04 | barasertib 0.01

CIAO2A (UniProt Q9H5X1)
inactive: [1] -0.048 | [2] -0.025 | [3] 0.004 | [4] 0.011 | Nexturastat A -0.048 | vemurafenib 0.002 | [5] 0 | [6] -0.006 | givinostat -0.007 | barasertib -0.002

CLINT1 isoform 3 (UniProt Q14677)
inactive: [1] -0.082 | [2] -0.001 | [3] -0.094 | [4] -0.09 | Nexturastat A 0.122 | vemurafenib -0.049 | [5] -0.073 | [6] -0.019 | givinostat -0.01 | barasertib -0.047
